Experimental data taken from the supplement of paper PMC12823440, “Inhibitors supercharge kinase turnover through native proteolytic circuits” (Nature, 2025).
The list shows a part of the results. The calls rarely recur for the same compound in another form.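 In K562 cells expressing nanoluciferase-fused kinases, luminescence was recorded at 4 h intervals between 2 and 18 h, normalized as percent of control with DMSO at 100% and a positive control at 0%. A significant (2 sigma) signal drop marks a time point as decreased. The authors' rule for a hit is not shown and takes in more than the number of time points.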

Chains of the proteins cited; added tags and fusions are not shown. Lines headed by an entry give the natural chain unless they say otherwise; changes in a name come on top.
UniProt P00519, whole entry: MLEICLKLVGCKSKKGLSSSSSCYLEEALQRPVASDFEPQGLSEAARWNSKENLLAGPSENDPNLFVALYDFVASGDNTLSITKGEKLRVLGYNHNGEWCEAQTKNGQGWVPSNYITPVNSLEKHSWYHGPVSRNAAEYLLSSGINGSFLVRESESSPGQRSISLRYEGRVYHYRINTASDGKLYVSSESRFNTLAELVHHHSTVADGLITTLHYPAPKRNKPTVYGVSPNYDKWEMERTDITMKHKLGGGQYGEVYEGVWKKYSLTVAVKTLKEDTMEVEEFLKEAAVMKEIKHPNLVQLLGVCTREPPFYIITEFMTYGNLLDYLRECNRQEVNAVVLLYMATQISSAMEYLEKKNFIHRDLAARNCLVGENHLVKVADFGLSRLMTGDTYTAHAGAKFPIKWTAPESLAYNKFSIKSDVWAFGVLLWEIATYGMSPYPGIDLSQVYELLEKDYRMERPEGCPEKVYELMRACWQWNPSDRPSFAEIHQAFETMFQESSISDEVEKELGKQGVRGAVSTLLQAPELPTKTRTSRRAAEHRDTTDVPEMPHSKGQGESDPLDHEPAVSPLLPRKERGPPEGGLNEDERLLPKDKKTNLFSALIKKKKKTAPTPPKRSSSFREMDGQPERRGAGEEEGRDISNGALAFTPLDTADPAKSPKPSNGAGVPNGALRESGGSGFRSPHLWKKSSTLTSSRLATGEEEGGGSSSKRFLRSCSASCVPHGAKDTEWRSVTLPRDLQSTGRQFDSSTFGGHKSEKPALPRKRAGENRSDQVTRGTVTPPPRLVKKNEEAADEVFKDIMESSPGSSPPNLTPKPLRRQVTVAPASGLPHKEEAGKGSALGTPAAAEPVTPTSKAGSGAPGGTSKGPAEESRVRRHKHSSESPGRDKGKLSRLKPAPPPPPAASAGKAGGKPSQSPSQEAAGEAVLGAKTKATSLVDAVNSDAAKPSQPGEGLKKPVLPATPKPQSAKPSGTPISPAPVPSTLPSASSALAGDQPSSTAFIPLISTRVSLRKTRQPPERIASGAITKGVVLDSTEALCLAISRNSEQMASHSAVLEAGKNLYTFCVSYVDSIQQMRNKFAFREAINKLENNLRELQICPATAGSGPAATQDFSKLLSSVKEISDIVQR
UniProt Q9UM73: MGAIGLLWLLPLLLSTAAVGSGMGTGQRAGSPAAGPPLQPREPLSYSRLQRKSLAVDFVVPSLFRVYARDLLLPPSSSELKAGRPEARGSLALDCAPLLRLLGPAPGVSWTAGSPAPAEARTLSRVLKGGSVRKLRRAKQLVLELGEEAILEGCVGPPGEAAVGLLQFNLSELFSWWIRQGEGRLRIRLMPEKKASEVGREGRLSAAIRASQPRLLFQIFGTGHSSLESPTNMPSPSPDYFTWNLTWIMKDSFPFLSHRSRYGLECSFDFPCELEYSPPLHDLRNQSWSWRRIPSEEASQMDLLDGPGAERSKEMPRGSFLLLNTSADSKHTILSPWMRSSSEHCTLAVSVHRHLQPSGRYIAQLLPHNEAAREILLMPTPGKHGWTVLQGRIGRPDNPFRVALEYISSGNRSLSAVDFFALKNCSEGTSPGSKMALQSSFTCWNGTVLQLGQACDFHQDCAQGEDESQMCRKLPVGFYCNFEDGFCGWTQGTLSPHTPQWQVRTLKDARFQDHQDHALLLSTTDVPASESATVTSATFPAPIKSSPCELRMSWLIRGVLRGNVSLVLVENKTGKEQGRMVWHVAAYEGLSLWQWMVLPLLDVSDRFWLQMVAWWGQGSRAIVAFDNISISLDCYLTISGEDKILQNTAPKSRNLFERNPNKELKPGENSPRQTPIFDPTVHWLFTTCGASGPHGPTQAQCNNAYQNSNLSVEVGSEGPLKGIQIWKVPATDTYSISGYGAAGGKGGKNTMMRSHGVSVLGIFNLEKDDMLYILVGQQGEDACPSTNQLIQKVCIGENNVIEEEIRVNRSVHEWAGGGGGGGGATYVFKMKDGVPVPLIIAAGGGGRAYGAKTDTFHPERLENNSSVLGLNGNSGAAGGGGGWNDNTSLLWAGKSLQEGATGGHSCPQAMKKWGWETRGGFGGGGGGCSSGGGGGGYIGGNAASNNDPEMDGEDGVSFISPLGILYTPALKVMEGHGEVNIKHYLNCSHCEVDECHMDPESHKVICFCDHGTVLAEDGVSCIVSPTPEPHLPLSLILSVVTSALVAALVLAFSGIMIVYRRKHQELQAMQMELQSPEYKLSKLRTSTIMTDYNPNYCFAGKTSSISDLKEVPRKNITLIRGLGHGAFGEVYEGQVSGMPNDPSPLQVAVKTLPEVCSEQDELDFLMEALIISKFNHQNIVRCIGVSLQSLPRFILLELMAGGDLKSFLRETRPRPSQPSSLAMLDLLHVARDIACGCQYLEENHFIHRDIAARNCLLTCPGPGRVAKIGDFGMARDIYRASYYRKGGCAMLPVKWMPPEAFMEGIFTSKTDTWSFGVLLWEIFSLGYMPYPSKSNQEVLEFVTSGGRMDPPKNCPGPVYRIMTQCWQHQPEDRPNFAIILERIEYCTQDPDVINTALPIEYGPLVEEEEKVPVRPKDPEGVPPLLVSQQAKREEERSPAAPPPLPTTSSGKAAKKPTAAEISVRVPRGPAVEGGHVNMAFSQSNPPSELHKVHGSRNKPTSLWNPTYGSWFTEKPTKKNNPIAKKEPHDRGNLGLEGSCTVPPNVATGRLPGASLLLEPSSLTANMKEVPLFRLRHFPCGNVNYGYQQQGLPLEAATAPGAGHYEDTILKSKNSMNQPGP
UniProt P10398: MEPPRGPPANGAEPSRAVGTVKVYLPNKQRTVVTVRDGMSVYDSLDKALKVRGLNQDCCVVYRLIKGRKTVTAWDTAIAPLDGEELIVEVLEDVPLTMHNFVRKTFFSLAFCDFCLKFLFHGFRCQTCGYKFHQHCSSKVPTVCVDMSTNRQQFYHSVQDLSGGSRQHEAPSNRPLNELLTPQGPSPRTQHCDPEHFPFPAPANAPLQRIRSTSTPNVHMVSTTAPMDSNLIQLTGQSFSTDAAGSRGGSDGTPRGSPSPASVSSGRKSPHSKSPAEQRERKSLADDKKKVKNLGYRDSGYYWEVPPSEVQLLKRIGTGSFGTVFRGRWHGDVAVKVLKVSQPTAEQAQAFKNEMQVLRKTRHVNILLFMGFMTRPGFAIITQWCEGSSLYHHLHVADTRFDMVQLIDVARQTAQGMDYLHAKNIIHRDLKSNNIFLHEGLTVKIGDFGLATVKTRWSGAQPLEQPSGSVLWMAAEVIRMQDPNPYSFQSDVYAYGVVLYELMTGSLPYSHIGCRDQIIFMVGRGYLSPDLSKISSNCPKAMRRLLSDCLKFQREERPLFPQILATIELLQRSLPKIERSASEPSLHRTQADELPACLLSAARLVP
UniProt Q9UQB9: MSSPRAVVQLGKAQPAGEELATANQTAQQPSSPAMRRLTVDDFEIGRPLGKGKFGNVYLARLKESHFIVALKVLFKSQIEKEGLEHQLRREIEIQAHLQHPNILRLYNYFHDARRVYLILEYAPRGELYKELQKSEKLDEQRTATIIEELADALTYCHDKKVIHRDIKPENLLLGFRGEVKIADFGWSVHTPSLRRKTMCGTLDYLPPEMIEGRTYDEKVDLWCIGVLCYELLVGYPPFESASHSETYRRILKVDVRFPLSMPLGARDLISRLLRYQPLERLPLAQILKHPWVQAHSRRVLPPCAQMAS
UniProt P51813: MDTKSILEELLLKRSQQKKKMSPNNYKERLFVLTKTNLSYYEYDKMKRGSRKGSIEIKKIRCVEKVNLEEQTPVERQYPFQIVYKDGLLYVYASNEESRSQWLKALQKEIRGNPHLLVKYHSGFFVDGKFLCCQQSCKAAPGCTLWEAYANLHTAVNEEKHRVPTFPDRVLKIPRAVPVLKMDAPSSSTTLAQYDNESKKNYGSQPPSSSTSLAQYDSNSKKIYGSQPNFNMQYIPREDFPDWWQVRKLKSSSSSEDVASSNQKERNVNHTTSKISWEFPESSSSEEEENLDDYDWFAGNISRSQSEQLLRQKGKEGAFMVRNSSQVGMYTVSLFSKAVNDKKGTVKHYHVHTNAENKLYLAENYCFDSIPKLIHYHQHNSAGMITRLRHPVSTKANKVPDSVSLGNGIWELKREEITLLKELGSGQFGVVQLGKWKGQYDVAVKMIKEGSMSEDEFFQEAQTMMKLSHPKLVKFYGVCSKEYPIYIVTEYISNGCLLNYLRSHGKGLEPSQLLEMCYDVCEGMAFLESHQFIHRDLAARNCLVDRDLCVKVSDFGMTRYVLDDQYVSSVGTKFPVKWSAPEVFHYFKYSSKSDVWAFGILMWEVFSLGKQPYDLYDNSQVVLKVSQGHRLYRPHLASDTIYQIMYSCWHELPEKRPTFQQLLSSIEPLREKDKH
UniProt P15056, whole entry, looked up: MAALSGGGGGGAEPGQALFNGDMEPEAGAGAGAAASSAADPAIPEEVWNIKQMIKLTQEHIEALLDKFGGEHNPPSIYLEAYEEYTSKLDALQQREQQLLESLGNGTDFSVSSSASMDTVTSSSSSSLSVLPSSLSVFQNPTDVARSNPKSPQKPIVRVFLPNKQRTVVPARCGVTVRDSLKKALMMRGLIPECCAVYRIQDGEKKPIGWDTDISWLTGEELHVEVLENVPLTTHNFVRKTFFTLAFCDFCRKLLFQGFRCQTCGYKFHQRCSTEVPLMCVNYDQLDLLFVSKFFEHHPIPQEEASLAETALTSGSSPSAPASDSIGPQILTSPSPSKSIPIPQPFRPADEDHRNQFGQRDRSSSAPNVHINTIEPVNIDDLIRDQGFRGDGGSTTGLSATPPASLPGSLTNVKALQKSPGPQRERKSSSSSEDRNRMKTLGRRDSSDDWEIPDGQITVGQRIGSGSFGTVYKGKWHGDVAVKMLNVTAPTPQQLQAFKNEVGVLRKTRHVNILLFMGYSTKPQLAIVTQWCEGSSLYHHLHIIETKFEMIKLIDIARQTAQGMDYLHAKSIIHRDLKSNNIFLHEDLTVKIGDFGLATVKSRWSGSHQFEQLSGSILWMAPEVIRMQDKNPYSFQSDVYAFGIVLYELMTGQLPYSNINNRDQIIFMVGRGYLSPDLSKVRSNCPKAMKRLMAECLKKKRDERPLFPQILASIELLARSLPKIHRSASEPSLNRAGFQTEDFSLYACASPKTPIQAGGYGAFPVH
UniProt Q9UQM7, whole entry: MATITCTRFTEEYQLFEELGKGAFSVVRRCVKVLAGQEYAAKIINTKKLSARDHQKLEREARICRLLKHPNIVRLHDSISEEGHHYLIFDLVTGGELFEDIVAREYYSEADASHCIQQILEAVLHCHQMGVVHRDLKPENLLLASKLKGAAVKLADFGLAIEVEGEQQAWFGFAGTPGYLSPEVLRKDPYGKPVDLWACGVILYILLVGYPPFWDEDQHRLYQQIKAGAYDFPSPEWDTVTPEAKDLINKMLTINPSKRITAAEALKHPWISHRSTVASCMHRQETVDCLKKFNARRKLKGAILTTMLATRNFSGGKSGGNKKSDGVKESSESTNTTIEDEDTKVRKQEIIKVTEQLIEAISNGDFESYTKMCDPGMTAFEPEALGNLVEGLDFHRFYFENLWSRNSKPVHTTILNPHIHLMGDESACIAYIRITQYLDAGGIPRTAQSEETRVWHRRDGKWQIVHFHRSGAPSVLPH
UniProt Q13555: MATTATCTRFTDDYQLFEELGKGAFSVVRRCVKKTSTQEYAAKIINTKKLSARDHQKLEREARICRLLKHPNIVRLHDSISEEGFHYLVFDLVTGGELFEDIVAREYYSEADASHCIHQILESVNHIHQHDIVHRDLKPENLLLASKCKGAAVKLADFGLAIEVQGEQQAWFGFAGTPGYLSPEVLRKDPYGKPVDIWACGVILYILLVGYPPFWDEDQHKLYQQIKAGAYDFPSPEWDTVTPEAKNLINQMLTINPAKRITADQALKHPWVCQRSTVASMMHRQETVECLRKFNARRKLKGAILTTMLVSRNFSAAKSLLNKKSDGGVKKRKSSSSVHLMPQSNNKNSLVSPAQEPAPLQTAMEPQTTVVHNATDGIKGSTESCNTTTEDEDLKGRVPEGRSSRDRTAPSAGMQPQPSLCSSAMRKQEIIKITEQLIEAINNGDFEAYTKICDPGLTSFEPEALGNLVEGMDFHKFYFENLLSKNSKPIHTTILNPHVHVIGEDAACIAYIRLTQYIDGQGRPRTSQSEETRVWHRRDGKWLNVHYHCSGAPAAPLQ
UniProt Q00534, whole entry: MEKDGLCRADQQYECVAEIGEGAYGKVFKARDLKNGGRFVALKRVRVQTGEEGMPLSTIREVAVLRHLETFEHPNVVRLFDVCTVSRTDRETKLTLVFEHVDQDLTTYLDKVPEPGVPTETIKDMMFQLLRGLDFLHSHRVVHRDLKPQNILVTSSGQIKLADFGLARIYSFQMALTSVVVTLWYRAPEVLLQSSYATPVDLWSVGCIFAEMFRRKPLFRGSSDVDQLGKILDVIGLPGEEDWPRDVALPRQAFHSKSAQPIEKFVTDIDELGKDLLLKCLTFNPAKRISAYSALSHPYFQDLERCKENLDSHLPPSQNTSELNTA

Key:
Experiment in all cases: kinase-Nluc reporter destabilization hit call (1 = scored as downregulated) (binary); higher = compound decreases kinase abundance
Conditions in all cases: K562; 2-18 h
[1] = target: ABL1 (UniProt P00519)
[2] = target: AKT1 (UniProt P31749)
[3] = target: ALK (UniProt Q9UM73)
[4] = target: ARAF (UniProt P10398)
[5] = target: AURKA (UniProt O14965)
[6] = target: AURKB (UniProt Q96GD4)
[7] = target: AURKC (UniProt Q9UQB9)
[8] = target: BLK (UniProt P51451)
[9] = target: BMX (UniProt P51813)
[10] = target: BRAF (UniProt P15056)
[11] = tested on: BRAF_V600E
[12] = target: BTK (UniProt Q06187)
[13] = target: CAMK2A (UniProt Q9UQM7)
[14] = target: CAMK2G (UniProt Q13555)
[15] = target: CDK10 (UniProt Q15131)
[16] = target: CDK2 (UniProt P24941)
[17] = target: CDK3 (UniProt Q00526)
[18] = target: CDK4 (UniProt P11802)
[19] = target: CDK5 (UniProt Q00535)
[20] = target: CDK6 (UniProt Q00534)

| SMILES | kinase-Nluc reporter destabilization hit call [1] | kinase-Nluc reporter destabilization hit call [2] | kinase-Nluc reporter destabilization hit call [3] | kinase-Nluc reporter destabilization hit call [4] | kinase-Nluc reporter destabilization hit call [5] | kinase-Nluc reporter destabilization hit call [6] | kinase-Nluc reporter destabilization hit call [7] | kinase-Nluc reporter destabilization hit call [8] | kinase-Nluc reporter destabilization hit call [9] | kinase-Nluc reporter destabilization hit call [10] | kinase-Nluc reporter destabilization hit call [11] | kinase-Nluc reporter destabilization hit call [12] | kinase-Nluc reporter destabilization hit call [13] | kinase-Nluc reporter destabilization hit call [14] | kinase-Nluc reporter destabilization hit call [15] | kinase-Nluc reporter destabilization hit call [16] | kinase-Nluc reporter destabilization hit call [17] | kinase-Nluc reporter destabilization hit call [18] | kinase-Nluc reporter destabilization hit call [19] | kinase-Nluc reporter destabilization hit call [20] |
| --- | --- | --- | --- | --- | --- | --- | --- | --- | --- | --- | --- | --- | --- | --- | --- | --- | --- | --- | --- | --- |
| COc1nc(-c2cccc3c2OCCO3)ccc1Nc1ccc(CN(C)C)cc1 [RAS inhibitor Abd-7] (10 µM) | inactive: 0 | inactive: 0 | inactive: 0 | inactive: 0 | inactive: 0 | inactive: 0 | inactive: 0 | inactive: 0 | inactive: 0 | inactive: 0 | inactive: 0 | inactive: 0 | inactive: 0 | inactive: 0 | inactive: 0 | inactive: 0 | inactive: 0 | inactive: 0 | inactive: 0 | inactive: 0 |
| Cc1cc(Nc2nc(N[C@@H](C)c3ncc(F)cn3)ncc2Cl)[nH]n1 (10 µM) | inactive: 0 | inactive: 0 | inactive: 0 | inactive: 0 | inactive: 0 | inactive: 0 | inactive: 0 | inactive: 0 | inactive: 0 | inactive: 0 | inactive: 0 | inactive: 0 | inactive: 0 | inactive: 0 | inactive: 0 | inactive: 0 | inactive: 0 | inactive: 0 | inactive: 0 | inactive: 0 |
| O=c1nc(N2CCOCC2)oc2c(-c3cccc4c3sc3ccccc34)cccc12 (10 µM) | inactive: 0 | inactive: 0 | inactive: 0 | inactive: 0 | inactive: 0 | inactive: 0 | inactive: 0 | inactive: 0 | inactive: 0 | inactive: 0 | inactive: 0 | inactive: 0 | inactive: 0 | inactive: 0 | inactive: 0 | inactive: 0 | inactive: 0 | inactive: 0 | inactive: 0 | inactive: 0 |
| c1ccc(-c2oc3ncnc(NC[C@@H]4CCCO4)c3c2-c2ccccc2)cc1 (2.5 µM) | inactive: 0 | inactive: 0 | inactive: 0 | inactive: 0 | inactive: 0 | inactive: 0 | inactive: 0 | inactive: 0 | inactive: 0 | inactive: 0 | inactive: 0 | inactive: 0 | inactive: 0 | inactive: 0 | inactive: 0 | inactive: 0 | inactive: 0 | inactive: 0 | inactive: 0 | inactive: 0 |
| CN(C)C(=O)c1ccc(S(=O)(=O)c2ccc(NC(=O)[C@@](C)(O)C(F)(F)F)c(Cl)c2)cc1 (10 µM) | inactive: 0 | inactive: 0 | inactive: 0 | inactive: 0 | inactive: 0 | inactive: 0 | inactive: 0 | inactive: 0 | inactive: 0 | inactive: 0 | inactive: 0 | inactive: 0 | inactive: 0 | inactive: 0 | inactive: 0 | inactive: 0 | inactive: 0 | inactive: 0 | inactive: 0 | inactive: 0 |
| NC(=O)c1ccc(-c2cnn3ccc(NCc4cccnc4)nc23)cc1 (2.5 µM) | inactive: 0 | inactive: 0 | inactive: 0 | inactive: 0 | inactive: 0 | inactive: 0 | inactive: 0 | inactive: 0 | inactive: 0 | inactive: 0 | inactive: 0 | inactive: 0 | inactive: 0 | inactive: 0 | inactive: 0 | inactive: 0 | inactive: 0 | inactive: 0 | inactive: 0 | inactive: 0 |
| CN(C)Cc1cccc(N=C(c2ccccc2)c2c(O)[nH]c3cc(C(N)=O)ccc23)c1 (10 µM) | inactive: 0 | inactive: 0 | inactive: 0 | inactive: 0 | inactive: 0 | inactive: 0 | inactive: 0 | inactive: 0 | inactive: 0 | inactive: 0 | inactive: 0 | inactive: 0 | inactive: 0 | inactive: 0 | inactive: 0 | inactive: 0 | inactive: 0 | inactive: 0 | inactive: 0 | inactive: 0 |
| COc1c(O)cc2oc3cc(O)c(CC=C(C)C)c(O)c3c(=O)c2c1CCC(C)(C)O [Garcinone D] (2.5 µM) | inactive: 0 | inactive: 0 | inactive: 0 | inactive: 0 | inactive: 0 | inactive: 0 | inactive: 0 | inactive: 0 | inactive: 0 | inactive: 0 | inactive: 0 | inactive: 0 | inactive: 0 | inactive: 0 | inactive: 0 | inactive: 0 | inactive: 0 | inactive: 0 | inactive: 0 | inactive: 0 |
| CN(C)c1ncnc2nc[nH]c12 [6-(Dimethylamino)purine] (10 µM) | inactive: 0 | inactive: 0 | inactive: 0 | inactive: 0 | inactive: 0 | inactive: 0 | inactive: 0 | inactive: 0 | inactive: 0 | inactive: 0 | inactive: 0 | inactive: 0 | inactive: 0 | inactive: 0 | inactive: 0 | inactive: 0 | inactive: 0 | inactive: 0 | inactive: 0 | inactive: 0 |
| COc1ccc(-n2c(C)c([N+](=O)[O-])c3ccc(O)cc32)cc1 (10 µM) | inactive: 0 | inactive: 0 | inactive: 0 | inactive: 0 | inactive: 0 | inactive: 0 | inactive: 0 | inactive: 0 | inactive: 0 | inactive: 0 | inactive: 0 | inactive: 0 | inactive: 0 | inactive: 0 | inactive: 0 | inactive: 0 | inactive: 0 | inactive: 0 | inactive: 0 | inactive: 0 |
| C=CC(=O)Nc1cccc(-n2c(=O)cc(C)c3cnc(Nc4ccc(OCCN(C)C)cc4OC)nc32)c1 (10 µM) | inactive: 0 | inactive: 0 | inactive: 0 | inactive: 0 | inactive: 0 | inactive: 0 | inactive: 0 | inactive: 0 | inactive: 0 | inactive: 0 | inactive: 0 | inactive: 0 | inactive: 0 | inactive: 0 | inactive: 0 | inactive: 0 | inactive: 0 | inactive: 0 | inactive: 0 | inactive: 0 |
| CC(C)c1cc(/C=C(\C#N)C(N)=O)cc(C(C)C)c1O (10 µM) | inactive: 0 | inactive: 0 | inactive: 0 | inactive: 0 | inactive: 0 | inactive: 0 | inactive: 0 | inactive: 0 | inactive: 0 | inactive: 0 | inactive: 0 | inactive: 0 | inactive: 0 | inactive: 0 | inactive: 0 | inactive: 0 | inactive: 0 | inactive: 0 | inactive: 0 | inactive: 0 |
| O=C1NC(=O)/C(=C/c2ccc(-c3ccc(F)cc3O)o2)S1 (10 µM) | inactive: 0 | inactive: 0 | inactive: 0 | inactive: 0 | inactive: 0 | inactive: 0 | inactive: 0 | inactive: 0 | inactive: 0 | inactive: 0 | inactive: 0 | inactive: 0 | inactive: 0 | inactive: 0 | inactive: 0 | inactive: 0 | inactive: 0 | inactive: 0 | inactive: 0 | inactive: 0 |
| CC1=C(CC(=O)O)c2cc(F)ccc2/C1=C\c1ccc(C(C)C)cc1 (10 µM) | inactive: 0 | inactive: 0 | inactive: 0 | inactive: 0 | inactive: 0 | inactive: 0 | inactive: 0 | inactive: 0 | inactive: 0 | inactive: 0 | inactive: 0 | inactive: 0 | inactive: 0 | inactive: 0 | inactive: 0 | inactive: 0 | active: 1 | inactive: 0 | inactive: 0 | inactive: 0 |
| O=S(=O)(c1cccc2cnccc12)N1CCNCC1 (10 µM) | inactive: 0 | inactive: 0 | inactive: 0 | inactive: 0 | inactive: 0 | inactive: 0 | inactive: 0 | inactive: 0 | inactive: 0 | inactive: 0 | inactive: 0 | inactive: 0 | inactive: 0 | inactive: 0 | inactive: 0 | inactive: 0 | inactive: 0 | inactive: 0 | inactive: 0 | inactive: 0 |
| COc1cc(N2CCC(O)CC2)ccc1Nc1cc(Nc2ccccc2S(=O)(=O)C(C)C)c2cc[nH]c2n1 (10 µM) | inactive: 0 | inactive: 0 | inactive: 0 | inactive: 0 | inactive: 0 | inactive: 0 | inactive: 0 | inactive: 0 | inactive: 0 | inactive: 0 | inactive: 0 | inactive: 0 | inactive: 0 | inactive: 0 | inactive: 0 | inactive: 0 | inactive: 0 | inactive: 0 | inactive: 0 | inactive: 0 |
| Fc1c(Br)cccc1Nc1ncnc2cc3c(cc12)OCCO3 (2.5 µM) | inactive: 0 | inactive: 0 | inactive: 0 | inactive: 0 | inactive: 0 | inactive: 0 | inactive: 0 | inactive: 0 | inactive: 0 | inactive: 0 | inactive: 0 | inactive: 0 | inactive: 0 | inactive: 0 | inactive: 0 | inactive: 0 | inactive: 0 | inactive: 0 | inactive: 0 | inactive: 0 |

Entries of single compounds, quoted from the list. Values in the order: kinase-Nluc reporter destabilization hit call [1]	kinase-Nluc reporter destabilization hit call [2]	kinase-Nluc reporter destabilization hit call [3]	kinase-Nluc reporter destabilization hit call [4]	kinase-Nluc reporter destabilization hit call [5]	kinase-Nluc reporter destabilization hit call [6]	kinase-Nluc reporter destabilization hit call [7]	kinase-Nluc reporter destabilization hit call [8]	kinase-Nluc reporter destabilization hit call [9]	kinase-Nluc reporter destabilization hit call [10]	kinase-Nluc reporter destabilization hit call [11]	kinase-Nluc reporter destabilization hit call [12]	kinase-Nluc reporter destabilization hit call [13]	kinase-Nluc reporter destabilization hit call [14]	kinase-Nluc reporter destabilization hit call [15]	kinase-Nluc reporter destabilization hit call [16]	kinase-Nluc reporter destabilization hit call [17]	kinase-Nluc reporter destabilization hit call [18]	kinase-Nluc reporter destabilization hit call [19]	kinase-Nluc reporter destabilization hit call [20]
Fc1c(Br)cccc1Nc1ncnc2cc3c(cc12)OCCO3 (2.5 µM) is entered as inactive: 0	inactive: 0	inactive: 0	inactive: 0	inactive: 0	inactive: 0	inactive: 0	inactive: 0	inactive: 0	inactive: 0	inactive: 0	inactive: 0	inactive: 0	inactive: 0	inactive: 0	inactive: 0	inactive: 0	inactive: 0	inactive: 0	inactive: 0
CC(C)c1cc(/C=C(\C#N)C(N)=O)cc(C(C)C)c1O (10 µM) is entered as inactive: 0	inactive: 0	inactive: 0	inactive: 0	inactive: 0	inactive: 0	inactive: 0	inactive: 0	inactive: 0	inactive: 0	inactive: 0	inactive: 0	inactive: 0	inactive: 0	inactive: 0	inactive: 0	inactive: 0	inactive: 0	inactive: 0	inactive: 0
